Measurements reported in PubChem BioAssay AID1259254 (NCATS, 2017)
Here is a random part of about 59,000 reagents. About 1,550 of them (2.6%) were called active. 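G2 share is only a proxy for re-replication; each gene was hit by three separate siRNAs, and active genes were retested.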 A number with no mark means an inactive call. The numbers tell different reagents against one gene apart. Not all columns of the deposit are shown. Not given: the amount of reagent.

Screen: 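Finding genes that stop cells copying their DNA twice in one cycle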 (primary screen)
System: human HCT116 colorectal cancer cells
Reagent: single siRNA against human genes
Timing: 3 days
Read-out: 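Imaged Hoechst DNA stain sorts each cell into a cycle phase by DNA amount; per plate, G2 fraction set to 0% for non-targeting and 100% for GMNN siRNA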
Direction: G2 robust z-score: higher = more G2 cells, more excess DNA replication
Active means: 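An siRNA counts as active if its G2 robust z-score lies at least 5 MADs above the screen median; here such calls match roughly 38% of GMNN control or more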

{"gene knocked down": "ZNF681", "siRNA no.": 1, "G2 robust z-score": -0.52}
{"gene knocked down": "ZNF681", "siRNA no.": 2, "G2 robust z-score": -0.275}
{"gene knocked down": "ZNF681", "siRNA no.": 3, "G2 robust z-score": -1.06}
{"gene knocked down": "ASAP3", "siRNA no.": 1, "G2 robust z-score": 3.28}
{"gene knocked down": "ASAP3", "siRNA no.": 2, "G2 robust z-score": -0.185}
{"gene knocked down": "ASAP3", "siRNA no.": 3, "G2 robust z-score": -0.524}
{"gene knocked down": "MIMS1", "siRNA no.": 1, "G2 robust z-score": -0.438}
{"gene knocked down": "MIMS1", "siRNA no.": 2, "G2 robust z-score": 4.95}
{"gene knocked down": "MIMS1", "siRNA no.": 3, "G2 robust z-score": -0.303}
{"gene knocked down": "NFATC1", "siRNA no.": 1, "G2 robust z-score": -1.2}
{"gene knocked down": "NFATC1", "siRNA no.": 2, "G2 robust z-score": -0.746}
{"gene knocked down": "NFATC1", "siRNA no.": 3, "G2 robust z-score": 0.36}
{"gene knocked down": "GSE1", "siRNA no.": 1, "G2 robust z-score": -0.944}
{"gene knocked down": "GSE1", "siRNA no.": 2, "G2 robust z-score": 1.58}
{"gene knocked down": "GSE1", "siRNA no.": 3, "G2 robust z-score": 0.826}
{"gene knocked down": "TAS2R5", "siRNA no.": 1, "G2 robust z-score": 1.44}
{"gene knocked down": "TAS2R5", "siRNA no.": 2, "G2 robust z-score": -0.717}
{"gene knocked down": "TAS2R5", "siRNA no.": 3, "G2 robust z-score": 2.85}
{"gene knocked down": "IFIH1", "siRNA no.": 1, "G2 robust z-score": 0.271}
{"gene knocked down": "IFIH1", "siRNA no.": 2, "G2 robust z-score": -0.682}
{"gene knocked down": "IFIH1", "siRNA no.": 3, "G2 robust z-score": 0.125}
{"gene knocked down": "MBD4", "siRNA no.": 1, "G2 robust z-score": -0.996}
{"gene knocked down": "MBD4", "siRNA no.": 2, "G2 robust z-score": 0.655}
{"gene knocked down": "MBD4", "siRNA no.": 3, "G2 robust z-score": -0.207}
